{
  "source": "patent US4550116A",
  "about": "“Piperidine derivatives” (Fordonal, S.A., priority 1983, dated 1985)",
  "system": "rat hindquarters",
  "experiment": "Rat hindquarter preparation, responses to high-K+ Krebs' solution",
  "description": "A Rat hindquarter preparation\nResponses of rat hindquarters perfused at constant rate were elicited by high -K^+ (80 mM) Krebs' solution. Test compounds (10^-7 M) were perfused for 20 minutes and then compound-free Krebs' perfusion was resumed for 40 min.",
  "data": [
    {"molecule": "CC(C)(C)c1ccc(C(=O)CCCN2CCC(OC(c3ccccc3)c3ccccc3)CC2)cc1", "note": "[Compound 1, 4-diphenylmethoxy-1-[3-(4-tert-butylbenzoyl)propyl]-piperidine]", "values": [
      {"measurement": "duration of anti-vasoconstrictor effects, compared with terfenadine and cinnarizine", "setting": "in vitro, rat hindquarter preparation", "value": "much longer lasting"},
      {"measurement": "TEST A RAT HINDQUARTERS % Inhibition", "setting": "maximum percentage inhibition, 10^-7 M perfused for 20 minutes, 80 mM K+", "value": 70, "unit": "%"},
      {"measurement": "directly acting anti-vasoconstrictor activity", "setting": "rat hindquarter preparation", "value": "potent"}
    ]}
  ]
}
